In the test the test system is BDF1 mice, B16 melanoma ip, median survival T/C. As to the kind of experiment: NCI In Vivo Anticancer Drug Screen. Data for tumor model B16 Melanoma (intraperitoneal) in B6D2F1 (BDF1) mice. The note with it: T/C endpoint: median survival time, higher T/C = longer survival. In outline:
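Mice with transplantable tumors; drug vs vehicle groups; endpoint survival or tumor size; value = T/C.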

The mark [1] stands for this setting: dose: 8.0 mg/kg/injection, schedule: Q01DX001 (ip), vehicle: water.
[2] abbreviates: dose: 50.0 mg/kg/injection, schedule: Q01DX009 (ip), vehicle: Klucel (hydroxypropylcellulose) (HPC).
The mark [3] stands for this setting: dose: 100.0 mg/kg/injection, schedule: Q01DX009 (ip), vehicle: Klucel (hydroxypropylcellulose) (HPC).
Where [4] appears, read: dose: 200.0 mg/kg/injection, schedule: Q01DX009 (ip), vehicle: Klucel (hydroxypropylcellulose) (HPC).

The list shows only some results of the screen, not a fair sample: it gathers tests that were run many times, whatever their T/C, doses with no T/C, and many T/C values between a quarter and a half above the control. Further doses and runs are listed elsewhere. T/C is the treated group as % of the vehicle group. Some entries give survivors of the animals treated and no T/C: the source files T/C as zero there, which appears to mark a toxic dose or a test without result, not a measured value. Some survivor counts are full or nearly so, which does not show that the dose was tolerated: the source hardly ever lists a survival T/C far under the control, and the zero likely stands for such cases as well. Survivors were counted at the toxicity check, usually on the fifth day, unless a day is given; later deaths do not show. Schedules are NCI's codes, taken here to give the interval after Q, in days (D) or hours (H), and the number of doses after X. For survival time, the PubChem record calls one and a half times the control and up active, and a quarter to a half above the control has no call in these data; cut-offs in other NCI protocols can differ. Marks such as (2×) say how often a value occurs here. Some entries hold several experiments; their values stand side by side, smallest first.

In the case of `CCC1(O)CC2CN(CCc3c([nH]c4ccccc34)C(C(=O)OC)(c3cc4c(cc3OC)N(C)C3C(O)(C(=O)NCCO)C(O)C5(CC)C=CCN6CCC43C65)C2)C1` (stereo not drawn), the T/C reads like this: (dose: 0.05 mg/kg/injection, schedule: Q01DX009 (ip), vehicle: saline) 140 % of control; (dose: 0.1 mg/kg/injection, schedule: Q01DX009 (ip), vehicle: saline) 140 % of control; (dose: 0.13 mg/kg/injection, schedule: Q01DX009 (ip), vehicle: water) 126 and 140 % of control; (dose: 0.22 mg/kg/injection, schedule: Q01DX009 (ip), vehicle: water) 149 % of control; (dose: 0.36 mg/kg/injection, schedule: Q01DX009 (ip), vehicle: water) 136 % of control; (dose: 0.52 mg/kg/injection, schedule: Q04DX003 (ip), vehicle: water) 125 and 137 % of control. The T/C was 126 % of control (dose: 0.6 mg/kg/injection, schedule: Q01DX009 (ip), vehicle: water); 139 and 144 % of control (dose: 0.86 mg/kg/injection, schedule: Q04DX003 (ip), vehicle: water); 131 % of control (dose: 1.04 mg/kg/injection, schedule: Q01DX001 (ip), vehicle: water); 126 and 132 % of control (dose: 1.73 mg/kg/injection, schedule: Q01DX001 (ip), vehicle: water); 138 % of control (dose: 2.9 mg/kg/injection, schedule: Q01DX001 (ip), vehicle: water); 134 % of control under setting [1]. Further, the T/C (dose: 389.0 micrograms/kg/injection, schedule: Q04DX003 (ip), vehicle: saline) is 131 % of control (2×); the T/C (dose: 648.0 micrograms/kg/injection, schedule: Q04DX003 (ip), vehicle: saline) was 147 % of control; the T/C (dose: 1080.0 micrograms/kg/injection, schedule: Q04DX003 (ip), vehicle: saline) is 147 % of control. Besides, the survivor count (dose: 0.6 mg/kg/injection, schedule: Q04DX003 (ip), vehicle: saline) was 9 of 10; the survivor count (dose: 1.0 mg/kg/injection, schedule: Q01DX009 (ip), vehicle: water) is given as 10 of 10; the survivor count (dose: 1.6 mg/kg/injection, schedule: Q01DX009 (ip), vehicle: saline) is listed as 5 of 6; the survivor count (dose: 2.78 mg/kg/injection, schedule: Q04DX003 (ip), vehicle: saline) is given as 10 of 10; the survivor count (dose: 3.2 mg/kg/injection, schedule: Q01DX009 (ip), vehicle: saline) was 6 of 6; the survivor count (dose: 4.0 mg/kg/injection, schedule: Q04DX003 (ip), vehicle: water) is listed as 10 of 10. For the same compound, the survivor count runs as follows: (dose: 4.63 mg/kg/injection, schedule: Q04DX003 (ip), vehicle: saline) 4 of 10; (dose: 6.4 mg/kg/injection, schedule: Q01DX009 (ip), vehicle: saline) 6 of 6; under setting [1], 9 of 10; (dose: 12.8 mg/kg/injection, schedule: Q01DX009 (ip), vehicle: saline) 0 of 6.
Consider `CC(C(=O)O)C(=O)O.[NH2-].[NH2-].[Pt+2]`, for which the T/C (dose: 6.25 mg/kg/injection, schedule: Q01DX009 (ip), vehicle: Klucel (hydroxypropylcellulose) (HPC)) was 129 % of control. The survivor count reads like this: under setting [2], 10 of 10; under setting [3], 4 of 10; under setting [4], 1 of 10.
On to `CCOCCN1CCN(CCCN2c3ccccc3Sc3ccc(C(F)(F)F)cc32)CC1`, for which the survivor count reads like this: (dose: 0.78 mg/kg/injection, schedule: Q01DX009 (ip), vehicle: saline) 10 of 10; (dose: 1.56 mg/kg/injection, schedule: Q01DX009 (ip), vehicle: saline) 9 of 10; (dose: 3.12 mg/kg/injection, schedule: Q01DX009 (ip), vehicle: saline) 9 of 10; (dose: 6.25 mg/kg/injection, schedule: Q01DX009 (ip), vehicle: saline) 6 of 10.
For `OC[CH2][Hg][Br]`, the survivor count (dose: 6.0 mg/kg/injection, schedule: Q01DX009 (ip), vehicle: saline) was 5 of 10.
In the case of `CC1(C)N=C(N)N=C(N)N1c1cc(Cl)ccc1Cl`, the survivor count is recorded as 6 of 10 under setting [2] and 0 of 10 under setting [3].
As for `N#C/C(=C\c1ccncc1)c1csc2ccccc12`, the survivor count by setting is: under setting [4], 9 of 10; (dose: 400.0 mg/kg/injection, schedule: Q01DX009 (ip), vehicle: Klucel (hydroxypropylcellulose) (HPC)) 10 of 10.
For the compound `C=CCOCC(O)CN(CCC(C)C)CCC(C)C` (stereo not drawn), the survivor count is, setting by setting: (dose: 100.0 mg/kg/injection, schedule: Q04DX003 (ip), vehicle: Klucel (hydroxypropylcellulose) (HPC)) 5 of 10; (dose: 200.0 mg/kg/injection, schedule: Q04DX003 (ip), vehicle: Klucel (hydroxypropylcellulose) (HPC)) 0 of 10; (dose: 400.0 mg/kg/injection, schedule: Q04DX003 (ip), vehicle: Klucel (hydroxypropylcellulose) (HPC)) 0 of 10.
Consider `FC(F)(F)c1ccc2c(c1)N(CCCN1CCN(CC[n+]3ccccc3)CC1)c1ccccc1S2`, for which the survivor count is, setting by setting: (dose: 2.5 mg/kg/injection, schedule: Q01DX009 (ip), vehicle: saline) 10 of 10; (dose: 20.0 mg/kg/injection, schedule: Q01DX009 (ip), vehicle: saline) 0 of 10.

The record behind these values is PubChem BioAssay AID192 (DTP/NCI, 2004).
